Test results published in the supplement of paper PMC12823440, “Inhibitors supercharge kinase turnover through native proteolytic circuits” (Nature, 2025).
Counter-ions that a name gives are not always drawn. The list shows a part of the results. Hit calls seldom repeat between salt and free forms of one compound.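 In K562 cells expressing nanoluciferase-fused kinases, luminescence was recorded at 4 h intervals between 2 and 18 h, normalized as percent of control with DMSO at 100% and a positive control at 0%. A significant (2 sigma) signal drop marks a time point as decreased. The authors' rule for a hit is not shown and takes in more than the number of time points.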

By UniProt entry, the sequences of proteins in these tests, tags left out.
UniProt Q9UQM7, whole entry: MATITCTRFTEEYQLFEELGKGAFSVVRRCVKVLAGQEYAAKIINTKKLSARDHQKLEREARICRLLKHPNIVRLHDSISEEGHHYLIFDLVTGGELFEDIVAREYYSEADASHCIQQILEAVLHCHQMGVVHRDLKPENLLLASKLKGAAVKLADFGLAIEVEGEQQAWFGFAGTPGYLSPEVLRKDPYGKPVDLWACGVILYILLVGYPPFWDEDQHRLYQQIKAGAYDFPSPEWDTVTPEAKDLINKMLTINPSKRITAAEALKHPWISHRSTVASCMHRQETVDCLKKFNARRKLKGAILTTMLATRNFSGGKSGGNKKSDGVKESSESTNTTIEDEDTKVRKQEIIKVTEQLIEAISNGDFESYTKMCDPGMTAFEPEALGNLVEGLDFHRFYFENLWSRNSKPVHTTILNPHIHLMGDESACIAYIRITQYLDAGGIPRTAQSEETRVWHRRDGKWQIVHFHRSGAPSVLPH

biological target: CAMK2A (UniProt Q9UQM7); assay: number of time points (of 5) at which kinase-Nluc abundance scored as decreased, DMSO-normalised (count); higher = more persistent destabilization; conditions: K562; 2-18 h

SMILES	number of time points
C[C@@H]1CCN(C(=O)CC#N)C[C@@H]1N(C)c1ncnc2[nH]ccc12 [Tofacitinib] (10 µM)	0
CC#CC(=O)N1CC[C@@H](n2c(=O)n(-c3ccc(Oc4ccccc4)cc3)c3c(N)ncnc32)C1 [Tirabrutinib (hydrochloride)] (10 µM)	0
Cc1ccc(C(=O)Nc2ccc(Oc3cc4cnn(C)c4cc3-c3cn[nH]c3)c(F)c2)c(=O)n1-c1ccc(F)cc1 [Merestinib] (2.5 µM)	0
Cc1cc(Nc2ncnc3ccc(NC4=NC(C)(C)CO4)cc23)ccc1Oc1ccn2ncnc2c1 [Tucatinib (hemiethanolate)] (2.5 µM)	0
C[C@@]1(c2ncncc2F)NC(=O)c2cc(-c3cn[nH]c3)ccc21 (10 µM)	0
COc1cc(Nc2ncc(F)c(Nc3ccc4c(n3)NC(=O)C(C)(C)O4)n2)cc(OC)c1OC (10 µM)	0
Cc1cc2ncc(-c3ccc(O)c(O)c3)nc2cc1C [Tyrphostin AG1433] (10 µM)	0
C=CC(=O)Nc1cccc(Nc2nc(Nc3ccc(N4CCN(C(C)=O)CC4)cc3OC)ncc2C(F)(F)F)c1 [Rociletinib hydrobromide] (10 µM)	0
Cc1cc(Nc2ncnc3ccc(NC4=NC(C)(C)CO4)cc23)ccc1Oc1ccn2ncnc2c1 [Tucatinib] (2.5 µM)	0
CCc1cc2c(cc1N1CCC(N3CCOCC3)CC1)C(C)(C)c1[nH]c3cc(C#N)ccc3c1C2=O [Alectinib (Hydrochloride)] (2 µM)	0
Cn1nccc1Nc1nccc(-c2ccn([C@H](CO)c3ccc(Cl)c(F)c3)c(=O)c2)n1 [Ravoxertinib hydrochloride] (10 µM)	0
COc1cc2c(N3CCN(C(=O)Nc4ccc(OC(C)C)cc4)CC3)ncnc2cc1OCCCN1CCCCC1 [Tandutinib] (10 µM)	0
CC#CC(=O)N1CC[C@@H](n2c(=O)n(-c3ccc(Oc4ccccc4)cc3)c3c(N)ncnc32)C1 [Tirabrutinib] (10 µM)	0
C=CC(=O)Nc1cccc(Nc2nc(Nc3ccc(N4CCN(C(C)=O)CC4)cc3OC)ncc2C(F)(F)F)c1 [Rociletinib] (10 µM)	0
COc1cc(Nc2ncc(F)c(Nc3ccc4c(n3)N(COP(=O)(O)O)C(=O)C(C)(C)O4)n2)cc(OC)c1OC [Fostamatinib Disodium] (10 µM)	0
COc1cc2c(N3CCN(C(=O)Nc4ccc(OC(C)C)cc4)CC3)ncnc2cc1OCCCN1CCCCC1 [Tandutinib (hydrochloride)] (10 µM)	0
COc1cc(Nc2ncc(F)c(Nc3ccc4c(n3)N(COP(=O)(O)O)C(=O)C(C)(C)O4)n2)cc(OC)c1OC [Fostamatinib (disodium hexahydrate)] (10 µM)	0
COc1cc2nccc(Oc3ccc(NC(=O)NC4CC4)c(Cl)c3)c2cc1C(N)=O [Lenvatinib (mesylate)] (10 µM)	0
Oc1ccc(Nc2nc(-c3ccc(Cl)cc3)cs2)cc1 (10 µM)	0
NC(=O)c1nc(Nc2ccccc2)sc1NC(=O)C1CCCCC1 (10 µM)	0
CC1=C(C(=O)O)N2C(=O)[C@@H](NC(=O)[C@H](N)C3=CCC=CC3)[C@H]2SC1 [Cephradine] (10 µM)	0
Cc1ccc(C(=O)Nc2ccc(Oc3cc4cnn(C)c4cc3-c3cn[nH]c3)c(F)c2)c(=O)n1-c1ccc(F)cc1 [Merestinib dihydrochloride] (2.5 µM)	0
Cc1ccc2nc(NCCN)c3ncc(C)n3c2c1 (2.5 µM)	0
CC(=O)NC1CC(n2cnc(NC(=O)Cc3ccc4ccccc4c3)c2)C1 (stereo not drawn) (10 µM)	0
COc1cc2nccc(Oc3ccc(NC(=O)NC4CC4)c(Cl)c3)c2cc1C(N)=O [Lenvatinib] (10 µM)	0
Cn1cnc2c(F)c(Nc3ccc(Br)cc3Cl)c(C(=O)NOCCO)cc21 [Selumetinib (sulfate)] (10 µM)	0
CCN1CCN(Cc2ccc(Nc3ncc(F)c(-c4cc(F)c5nc(C)n(C(C)C)c5c4)n3)nc2)CC1 [Abemaciclib] (2 µM)	0
C[C@@H]1CCN(C(=O)CC#N)C[C@@H]1N(C)c1ncnc2[nH]ccc12 [Tofacitinib (citrate)] (10 µM)	0

Exported bar-delimited: entries from further up
SMILES | number of time points
CC#CC(=O)N1CC[C@@H](n2c(=O)n(-c3ccc(Oc4ccccc4)cc3)c3c(N)ncnc32)C1 [Tirabrutinib (hydrochloride)] (10 µM) | 0
Cc1cc(Nc2ncnc3ccc(NC4=NC(C)(C)CO4)cc23)ccc1Oc1ccn2ncnc2c1 [Tucatinib (hemiethanolate)] (2.5 µM) | 0
Cc1cc2ncc(-c3ccc(O)c(O)c3)nc2cc1C [Tyrphostin AG1433] (10 µM) | 0
Cc1cc(Nc2ncnc3ccc(NC4=NC(C)(C)CO4)cc23)ccc1Oc1ccn2ncnc2c1 [Tucatinib] (2.5 µM) | 0
COc1cc(Nc2ncc(F)c(Nc3ccc4c(n3)N(COP(=O)(O)O)C(=O)C(C)(C)O4)n2)cc(OC)c1OC [Fostamatinib Disodium] (10 µM) | 0
COc1cc2nccc(Oc3ccc(NC(=O)NC4CC4)c(Cl)c3)c2cc1C(N)=O [Lenvatinib] (10 µM) | 0
Cn1cnc2c(F)c(Nc3ccc(Br)cc3Cl)c(C(=O)NOCCO)cc21 [Selumetinib (sulfate)] (10 µM) | 0
